# Reference: PubChem BioAssay AID1347423 (Functional Genomics Laboratory (NCATS/FGL), 2020)
# Screen size: about 52,000 sequences; about 210 (0.4%) were called active.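 How the source made its calls: active means gene whose silencing raises cell survival under the drug, median off-target-corrected z-score across its silencing RNAs 2 or more; inactive means the rest.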 Some of the results follow.
# Test: Resistance to Poly (ADP-Ribose) Polymerase inhibitor: Gene Identification via Genome-wide siRNA Screen
# Settings: mouse BRCA2 R2336H ES cells, olaparib, CellTiter-Glo viability; active compounds read high
# Summary of the method: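 Mouse BRCA2 R2336H ES cells were reverse-transfected with siRNA (20 nM final), treated at 48 h with 500 nM olaparib, and read by CellTiter-Glo after 72 h. Scores: MAD-based z per siRNA, median per gene, seed off-target correction.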
row,Sequence,z-score
1,CGUGGAACUCUCAACCAAGTT against Rbm14,inactive: 0.885
2,CCAUACAAGUAUCCGAACUTT against 1700102P08Rik,inactive: 0.267
3,CCUCAAUAGCUCUACUGAATT against Slc17a3,inactive: -0.535
4,GGAAGAGGAGGAGUACAAGTT against Fnbp1,inactive: 1.36
5,GGCUUUAGUAGACUACUUCTT against Osp94,inactive: -1.08
6,GGAGGUUAAUUCAGAGCUGTT against Nrf1,inactive: -0.838
7,GAUCUAGGACAGCUUAGAUTT against Avpr1b,inactive: 0.247
8,GGUAAUUGUUGUUUUUGGGTT against Ppyr1,inactive: 0.418
9,GGAGCUACAGGCUAUCAGUTT against 9230105K17Rik,inactive: 0.825
10,GGCCUAUAGACCUAAUUGUTT against V1rl1,inactive: 0.18
11,GCGAAUUACAUGAAAACAUTT against Pamci,inactive: 0.733
12,CGACUGGAUACCAAAUUACTT against 2610528A15Rik,inactive: -0.737
13,GCCCAUUGAUCCGGAGUAATT against 0710001B24Rik,inactive: -1.74
14,GCGACUAGAGAUCAAUUGCTT against Banp,inactive: 0.58
15,GCGGUGCCAAAGGUAUUAATT against Rad51ap1,inactive: 0.37
16,GGGUGUGAGUGAUUAUGAATT against 1500019O16Rik,inactive: 0.398
17,GCCGAAUAUUUCUACCUAATT against Fosl2,inactive: -0.535
18,GCCAUCGUCUACCUAUGACTT against Olfr358,inactive: 0.116
19,GGUUGUUGGACCAGUGUAUTT against Ranbp6,inactive: -0.168
20,CGGCUCAUCCGAUAUAUCCTT against Hcn2,inactive: 2.63
21,GGCGGCACGUUCACCUAAATT against Rnps1,inactive: 0.0506
22,GGAAAGAACUGAGUUCUCGTT against Ddx19,inactive: -0.543
23,GAGCUUCUGGCUGAGAUAATT against Espn,inactive: -2.24
24,GGAAGACACAGUUUCUCUUTT against Hs6st3,inactive: 0.764
25,GGGAUGAGAAAGUUCAGUUTT against Cox4i1,inactive: -1.24
26,CCAUGAGACCUCUGAUAAATT against 5730596K20Rik,inactive: -0.418

# 5 entries from above, tab-delimited.
row	Sequence	z-score
22	GGAAAGAACUGAGUUCUCGTT against Ddx19	inactive: -0.543
23	GAGCUUCUGGCUGAGAUAATT against Espn	inactive: -2.24
24	GGAAGACACAGUUUCUCUUTT against Hs6st3	inactive: 0.764
25	GGGAUGAGAAAGUUCAGUUTT against Cox4i1	inactive: -1.24
26	CCAUGAGACCUCUGAUAAATT against 5730596K20Rik	inactive: -0.418

# More records

row,Sequence,z-score
1,GGAGAUUUGCUCCUUAGUGTT against Pcdhb19,inactive: 2.49
2,GCAUCGAUAGUAUACUGUGTT against Srr,inactive: -0.519
3,GGUUCUACGGUCCAAAGUUTT against Fetub,inactive: -2.12
4,GCGUGCAUAUCUUAGAAAUTT against Zfp51,inactive: -0.712
5,CGUAGAAGAAUCUGCAUCATT against Ccl28,inactive: 2.39
6,GGCUACGAGUCCUCUGAAGTT against 1810045K07Rik,inactive: -0.732
7,GGUGUUCCAGGUUAAAAUCTT against Kdelc1,inactive: -0.395
8,GCGUAUAGCAGAAAACAGGTT against 2210403B10Rik,inactive: 0.441
9,GCCCUGUAUUUUGAAUUACTT against Bmpr1b,inactive: -0.155
10,GGCUCAUUGAGCACAUCAGTT against Zfpn1a5,inactive: 1.39
11,GUUCAUCAUUCGAAUCUGGTT against Kcnq5,inactive: 2.35
12,GGUAGAUUUUGAUGAAUUCTT against Caln1,inactive: 0.145
13,GGCCGGGCAUUCUAAAGAATT against C330029B10Rik,inactive: -0.879
14,GGCCGUAGGCAAUAUCUUATT against D930046M03,inactive: 0.285
15,GGUAUCACACUGGAAAGAATT against Zfp78,inactive: -0.155
16,CGCGAGGUCUUCGAAAGAATT against Siva,inactive: -2.53
17,UGUAACCAUGGUUACCGUGTT against Olfr1513,inactive: -0.767
18,GCUUUGCACAAAACACUUATT against LOC545471,inactive: -0.00656
19,GGAAGAGGGUUAAGAAAACTT against Nnat,inactive: 1.32
20,CCUUACGAAAUAAGGUAUUTT against Loxl3,inactive: -0.0986
21,GCACGUCCUCGAUCUCUGUTT against Extl3,inactive: 0.464
22,GGUGACAAAACCAUUUCCUTT against Olfr810,inactive: 0.351
23,CCUAUAUUCGGAGUGCAGUTT against Cops2,inactive: -2.23
24,GGCCAAGAACCGCUUUCACTT against Hesx1,inactive: 0.713
25,CAGGAAAUUAGCGAUGUGGTT against Abl2,inactive: -0.771
26,GCAGUCUUCCCUCAUCCUUTT against Cox8a,inactive: 0.216

row,Sequence,z-score
1,GGGAGUUUCAUUUUGAAAATT against 3830408P04Rik,inactive: -0.219
2,GGACAAUCUUUACUUCCUATT against Chx10,inactive: -1.28
3,GCCUGCUCUUGAAGGAUAATT against Ptpn9,active: 1.13
4,GCUUGUUCUCCGAAAAUGGTT against G431001I09Rik,inactive: 0.677
5,GCCAAAUUCUGGCUUCUUCTT against Cdc26,inactive: 0.813
6,GCUGUAGCUCCAACAAUUUTT against Olfr1442,inactive: -1.31
7,GGAGAACCAUAAUAAGAGUTT against Tnfrsf26,inactive: -0.801
8,GCUAUUACACCAGUUUUAATT against D3Jfr1,inactive: 0.419
9,GGAGACUUUGACCAAAUUATT against LOC433762,inactive: 0.0273
10,GGAGCCACAGAACAUAUUATT against Pinx1,inactive: 0.122
11,CCGCCUGGAUAAUUAUGAUTT against Cltc,inactive: 0.602
12,GCCACAUUGGAAGUAUCGATT against Pdk4,inactive: 0.295
13,GCUACCCUGAAUGCAACGUTT against Slc13a5,inactive: -0.342
14,GGAACUGGAAAUCUCAGAGTT against Pcdh12,inactive: -0.0238
15,GGAAUCUUCCAGAACUAAATT against Rufy1,inactive: 0.566
16,GACUUCUCUAGUCUGCCGGTT against 5730557B15Rik,inactive: -1.23
17,GCACGUAUGCUCUUUCUCATT against Pigw,inactive: 1.09
18,GGAGAGUAAAACCAAUACATT against BC008163,inactive: 2.93
19,CGUGUGGUUAGUACCUAAUTT against Grin2c,inactive: 2.04
20,CCUUCAACUUCCAUUUUUCTT against Ugt2b36,inactive: 0.239
21,GGAUAUGCUUAGAUAGACCTT against Galk2,inactive: -0.124
22,GGAAUAAAUAUUCCUCCUATT against 2810028N01Rik,inactive: -1.45
23,GCUCGAAUGUGUAAAGACGTT against Csnk1e,inactive: 0.0731
24,GGCUGUUUUCUAUCCUAGGTT against Cd207,inactive: 1.04
25,GGAAUAUUCUCUCAUCACATT against 1810037K07Rik,inactive: -0.985
26,CGAGGUCAUUCACUCUCGUTT against Hapln2,inactive: 0.303

row,Sequence,z-score
1,GGUACCCUUAUUGGAUAUUTT against Slc30a5,inactive: 0.755
2,GCCUGUGUGUUGCUGUAAGTT against Krtap5-1,inactive: -0.0331
3,GCUGGAUCUACCUAUUCAATT against 4921509C19Rik,inactive: 0.184
4,GCGACAUUGCCCUUCUCUGTT against LOC260408,inactive: -1.05
5,GGAGAUCAUGAAGAUCACATT against Mapk12,inactive: 1.34
6,GCUCUCAAUUGAGGAUAAATT against Mthfd1,inactive: -0.599
7,GGAGCUAAUAAUGGUCAAATT against B230206N24Rik,inactive: 1.1
8,GGACUCGUUCCACUAUCAUTT against Nat5,inactive: 0.096
9,GGAAGAUGAUUUUGACAAUTT against Pcdh18,inactive: -0.203
10,GGUUGCUAUGAUUUUUGUUTT against Itsn1,inactive: -0.31
11,GGAAAACCACCAUUUUAUGTT against Zfp36l1,inactive: 1.13
12,CCUAAAGAAAGGUUAAAGATT against 6330577E15Rik,inactive: -1.26
13,CGGUGACAUUUGUGAAACUTT against Smn1,inactive: -1.7
14,GCGAUGAUGUGCUUAUGUCTT against Znf341,inactive: 0.576
15,GCUAGGUGAUCAGAGAACUTT against 4833432M17Rik,inactive: 0.589
16,GGAACCUGUCCUAUAUAGGTT against 6030490I01Rik,inactive: 1.62
17,GGGCCAAUAGGAGUUCUUUTT against Tcf20,inactive: -0.107
18,GGGAAUGUAUCCACAUCAATT against 1700017G21Rik,inactive: 1.1
19,CCACCGUAAACUUCCCACCTT against LOC238447,inactive: 0.598
20,GAGCUAUACAAGGCCUACCTT against LOC547349,inactive: -1.01
21,CGUUAACUCUCGGACGAUCTT against 1110028A07Rik,inactive: -0.104
22,CCUACUAUGGCUCAUUUUATT against Rybp,inactive: 1.78
23,GGCCAAAUGACUGAGAUUGTT against Dscr1l2,inactive: 0.715
24,GGUGUUGCUUAUCAUCGGCTT against Mrgprh,inactive: 0.442
25,GGCCCAGAAGUUAUUCCUGTT against Zfp566,inactive: 3.18
26,GGUUGUAAAGAUGAGAAAATT against 2810036K01Rik,inactive: -0.64
